Consider four substances from publication PMC9289710.

By UniProt entry, the sequences of proteins in these tests, tags left out.
UniProt P30153: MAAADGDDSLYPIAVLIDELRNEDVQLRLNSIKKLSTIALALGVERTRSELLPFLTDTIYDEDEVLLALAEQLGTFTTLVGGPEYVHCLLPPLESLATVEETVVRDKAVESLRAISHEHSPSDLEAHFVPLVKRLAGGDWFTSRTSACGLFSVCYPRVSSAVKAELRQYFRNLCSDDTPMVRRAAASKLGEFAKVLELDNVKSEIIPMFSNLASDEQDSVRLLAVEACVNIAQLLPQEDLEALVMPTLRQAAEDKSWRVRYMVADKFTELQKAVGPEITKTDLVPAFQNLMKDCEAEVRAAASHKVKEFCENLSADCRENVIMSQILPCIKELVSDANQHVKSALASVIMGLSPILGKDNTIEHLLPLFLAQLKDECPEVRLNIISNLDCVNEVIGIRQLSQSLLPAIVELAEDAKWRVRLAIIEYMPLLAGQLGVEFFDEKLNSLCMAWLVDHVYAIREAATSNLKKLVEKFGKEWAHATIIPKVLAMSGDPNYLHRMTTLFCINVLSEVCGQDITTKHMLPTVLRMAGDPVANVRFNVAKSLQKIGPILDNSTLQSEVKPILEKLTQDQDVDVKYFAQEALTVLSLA
UniProt Q15172: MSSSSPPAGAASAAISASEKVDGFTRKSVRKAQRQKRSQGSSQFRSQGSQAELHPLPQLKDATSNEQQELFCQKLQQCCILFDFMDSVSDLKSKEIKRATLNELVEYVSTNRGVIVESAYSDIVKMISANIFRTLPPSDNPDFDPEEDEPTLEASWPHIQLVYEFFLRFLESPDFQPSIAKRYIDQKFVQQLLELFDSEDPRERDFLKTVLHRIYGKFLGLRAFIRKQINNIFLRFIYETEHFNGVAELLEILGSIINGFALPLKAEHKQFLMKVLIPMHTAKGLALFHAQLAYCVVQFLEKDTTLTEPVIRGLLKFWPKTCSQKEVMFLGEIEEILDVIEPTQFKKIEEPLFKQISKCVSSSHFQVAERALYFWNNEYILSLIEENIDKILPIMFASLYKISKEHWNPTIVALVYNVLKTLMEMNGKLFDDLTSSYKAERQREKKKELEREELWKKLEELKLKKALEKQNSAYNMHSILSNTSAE

Results are given in words; binding and its absence hold for the method and conditions named. For part of these data: In cells and extracts the contact can be indirect. Some entries that bind do so weakly or less than the wild type.

The target in assay [1] is PP2A Aα subunit (UniProt P30153). The experiment in a line: mass photometry; reconstituted PP2A-B56α holoenzyme at 50 nM, room temperature, without or with 2.5 µM DT-061; PBS or NMR buffer (methods); both purified.
The target is the same in assay [2]. The experiment in a line: SEC; pure Aα and B56α and partially purified Cα mixed at a 1:1:1 molar ratio, dialysed overnight at 4°C, HiTrap Q anion exchange, then HiLoad Superdex 200 in 20 mM Tris-HCl pH 8.0, 250 mM NaCl, 5% glycerol, 2 mM DTT; fractions by SDS-PAGE; both purified. On the technique in general: In gel filtration, larger molecules generally elute earlier.

The target of assay [3] is FLAG-myc-PPP2R1A (scaffold) (UniProt P30153). The experiment in a line: co-IP; FLAG-myc-PPP2R1A immunoprecipitated on Myc-Trap agarose from stable inducible HeLa cells treated with DMSO, 20 µM DT-061 or 2 µM iHAP1 for 2 h; low salt lysis buffer; Western blotting.
Assay [4] deals with PPP2R1A (human (endogenous in HeLa and H358)) (UniProt P30153). The experiment in a line: SEC; total cell extracts (HeLa, H358, HeLa with or without induced YFP-B56α; with or without DT-061) on Superdex200 10/300 in 130 mM NaCl, 25 mM Tris pH 7.4, 5 mM b-mercaptoethanol; fractions analysed by quantitative Licor Western blotting.
In another assay the target is Strep-B56α (UniProt Q15172). The assay is described as follows: pull-down; Strep-B56α, His-PP2ACA and MBP-PPP2R1A co-expressed in HEK293; complex purified by a Strep-tag affinity column, peak fractions run on a GF200 10/30 column; 100 mM Tris pH 8.0, 150 mM NaCl, 10% glycerol, 0.5 mM TCEP.

Take “PP2A B56α subunit (from UniProt Q15172 1-486)”: the binding result with PP2A Aα subunit [1] and with PP2A Aα subunit [2] was “binds” throughout. For B56α (from UniProt Q15172 1-486), the binding entry in assay [3] and in assay [4] was “binds” each time. For YFP-B56α (from UniProt Q15172 1-486), the binding result in assay [4] is “binds”.

Consider MBP-PPP2R1A (from UniProt P30153 1-589), for which the binding result with Strep-B56α is recorded as “binds”.
